Measured values taken from PMC3953376.
Results are given in words; binding and its absence hold for the method and conditions named. In cells and extracts the contact can be indirect. Some entries that bind do so weakly or less than the wild type.

Amino acid sequences for entries named in this document (tags omitted).
UniProt P35998: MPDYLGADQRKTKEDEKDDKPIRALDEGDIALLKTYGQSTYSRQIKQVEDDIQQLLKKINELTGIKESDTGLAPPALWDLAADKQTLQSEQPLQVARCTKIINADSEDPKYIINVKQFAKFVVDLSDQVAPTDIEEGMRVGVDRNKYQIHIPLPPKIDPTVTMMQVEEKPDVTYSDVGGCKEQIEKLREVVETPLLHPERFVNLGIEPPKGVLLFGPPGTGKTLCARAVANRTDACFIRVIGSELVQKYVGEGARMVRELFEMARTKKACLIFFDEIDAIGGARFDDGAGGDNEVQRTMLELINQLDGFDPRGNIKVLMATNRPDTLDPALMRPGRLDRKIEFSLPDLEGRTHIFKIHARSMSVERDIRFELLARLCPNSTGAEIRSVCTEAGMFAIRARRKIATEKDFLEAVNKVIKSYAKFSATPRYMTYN
UniProt P50750: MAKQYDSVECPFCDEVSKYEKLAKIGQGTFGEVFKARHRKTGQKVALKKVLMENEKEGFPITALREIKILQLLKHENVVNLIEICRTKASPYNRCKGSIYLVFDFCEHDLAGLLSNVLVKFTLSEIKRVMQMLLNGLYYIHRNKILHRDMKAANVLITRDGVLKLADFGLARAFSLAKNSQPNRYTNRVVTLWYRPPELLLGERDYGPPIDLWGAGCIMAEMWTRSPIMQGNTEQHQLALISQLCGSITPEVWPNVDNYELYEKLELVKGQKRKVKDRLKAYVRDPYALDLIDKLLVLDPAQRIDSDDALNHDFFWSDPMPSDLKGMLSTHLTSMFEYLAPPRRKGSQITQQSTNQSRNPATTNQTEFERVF
UniProt O94992: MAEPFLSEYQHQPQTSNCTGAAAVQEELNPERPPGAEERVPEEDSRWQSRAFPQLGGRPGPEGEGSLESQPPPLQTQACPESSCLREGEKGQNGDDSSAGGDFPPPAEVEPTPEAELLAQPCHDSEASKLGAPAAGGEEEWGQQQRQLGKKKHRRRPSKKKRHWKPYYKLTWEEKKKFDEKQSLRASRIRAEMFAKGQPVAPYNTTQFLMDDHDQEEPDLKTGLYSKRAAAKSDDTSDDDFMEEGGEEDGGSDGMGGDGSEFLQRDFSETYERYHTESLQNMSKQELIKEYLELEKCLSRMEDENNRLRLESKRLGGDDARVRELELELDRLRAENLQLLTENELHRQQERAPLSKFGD
UniProt P62195: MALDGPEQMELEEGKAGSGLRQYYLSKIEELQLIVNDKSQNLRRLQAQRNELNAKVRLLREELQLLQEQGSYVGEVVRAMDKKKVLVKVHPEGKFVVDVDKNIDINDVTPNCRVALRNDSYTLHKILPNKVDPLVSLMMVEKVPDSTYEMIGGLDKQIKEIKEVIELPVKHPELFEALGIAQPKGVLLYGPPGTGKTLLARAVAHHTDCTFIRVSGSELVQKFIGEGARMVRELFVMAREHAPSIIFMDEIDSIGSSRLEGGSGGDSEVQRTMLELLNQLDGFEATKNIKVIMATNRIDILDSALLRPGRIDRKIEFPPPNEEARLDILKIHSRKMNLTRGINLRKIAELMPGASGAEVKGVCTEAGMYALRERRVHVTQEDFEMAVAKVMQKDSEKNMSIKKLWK
UniProt P17980: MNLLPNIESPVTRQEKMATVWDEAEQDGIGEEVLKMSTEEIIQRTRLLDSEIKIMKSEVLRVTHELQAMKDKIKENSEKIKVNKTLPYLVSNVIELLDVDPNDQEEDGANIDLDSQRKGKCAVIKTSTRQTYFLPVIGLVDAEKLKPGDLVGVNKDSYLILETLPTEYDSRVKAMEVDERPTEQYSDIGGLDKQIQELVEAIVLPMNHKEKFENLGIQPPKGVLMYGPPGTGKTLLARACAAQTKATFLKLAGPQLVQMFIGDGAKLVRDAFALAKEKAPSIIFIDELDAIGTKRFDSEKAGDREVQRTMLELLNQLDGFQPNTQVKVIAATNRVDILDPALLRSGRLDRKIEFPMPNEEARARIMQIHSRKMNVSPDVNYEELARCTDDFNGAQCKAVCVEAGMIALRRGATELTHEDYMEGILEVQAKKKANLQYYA

Assays:
[1] = target: endogenous S7 (human (endogenous in HeLa)) (UniProt P35998); test: co-IP; endogenous proteins, HeLa cells lysed in NP-40 lysis buffer; IP with antibody against Sug1, S7 or S6a, immunoblot for Hexim, CDK9 or Ser5p RNA pol II; mouse IgG as negative control
HA-CDK9 = HA-CDK9 (UniProt P50750); test: co-IP; HeLa cells co-transfected with Myc-tagged ATPase and Flag-Hexim or HA-CDK9; RIPA lysates; IP with Flag beads or HA beads, immunoblot for Myc; mouse IgG as negative control
Flag-Hexim1 = Flag-Hexim1 (UniProt O94992); test: as above
[2] = target: endogenous Sug1 (human (endogenous in HeLa)) (UniProt P62195); test: co-IP; endogenous proteins, HeLa cells lysed in NP-40 lysis buffer; IP with antibody against Sug1, S7 or S6a, immunoblot for Hexim, CDK9 or Ser5p RNA pol II; mouse IgG as negative control
[3] = target: endogenous S6a (human (endogenous in HeLa)) (UniProt P17980); test: as above

binding [1] | binding (HA-CDK9) | binding (Flag-Hexim1) | binding [2] | binding [3] | Substance
binds | – | – | – | – | endogenous CDK9 (from UniProt P50750 1-372)
– | binds | binds | – | – | Myc-Sug1 (from UniProt P62195 1-406)
– | binds | binds | – | – | Myc-S7 (from UniProt P35998 1-433)
– | binds | binds | – | – | Myc-S6a (from UniProt P17980 1-439)
binds | – | – | binds | binds | endogenous Hexim (from UniProt O94992 1-359)
